Results are given in words; binding and its absence hold for the method and conditions named. Some results given as binding are weak or reduced against the parent protein; the word gives no strength.

The chains behind the UniProt entries cited, without tags or fusion partners. Residues count along the entry.
UniProt P00442, residues 2-152: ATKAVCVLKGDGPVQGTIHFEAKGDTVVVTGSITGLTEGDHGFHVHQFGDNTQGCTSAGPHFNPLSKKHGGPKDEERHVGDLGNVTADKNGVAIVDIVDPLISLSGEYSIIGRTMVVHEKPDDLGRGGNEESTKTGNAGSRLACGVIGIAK

In this assay the target is Bovine copper/zinc superoxide dismutase (SOD1), native (bovine) (UniProt P00442). Put plainly: GTPase immobilized on magnetic beads, loaded or not with guanine nucleotide, bound to SOD1, immunoblot for SOD1 (FIG. 12B). On the technique in general: A western blot detects proteins with antibodies after separation by electrophoresis.

As to “RhoA (from UniProt P24406 1-193) (enzyme)”, the binding result is “binds”.

The values are drawn from US20070265350A1.
